Experimental findings from PMC5452015, “Sen1 has unique structural features grafted on the architecture of the Upf1‐like helicase family” (The EMBO Journal, 2017) are described below.

Changes are numbered by the printed parent chain. For some of these results: A weaker result is weaker than the reference pair of the same experiment. Where a protein sequence is shown, tags need not be part of it. For some of these results: The exact form of at least one protein or probe is not confirmed. For some of these results: At least one verdict rests on a figure or table, not on a statement of the authors.

Data set [1] deals with T1, Sen1Hel T1289A, R1293A (Saccharomyces cerevisiae) (UniProt Q00416).
T1 sequence (looked up): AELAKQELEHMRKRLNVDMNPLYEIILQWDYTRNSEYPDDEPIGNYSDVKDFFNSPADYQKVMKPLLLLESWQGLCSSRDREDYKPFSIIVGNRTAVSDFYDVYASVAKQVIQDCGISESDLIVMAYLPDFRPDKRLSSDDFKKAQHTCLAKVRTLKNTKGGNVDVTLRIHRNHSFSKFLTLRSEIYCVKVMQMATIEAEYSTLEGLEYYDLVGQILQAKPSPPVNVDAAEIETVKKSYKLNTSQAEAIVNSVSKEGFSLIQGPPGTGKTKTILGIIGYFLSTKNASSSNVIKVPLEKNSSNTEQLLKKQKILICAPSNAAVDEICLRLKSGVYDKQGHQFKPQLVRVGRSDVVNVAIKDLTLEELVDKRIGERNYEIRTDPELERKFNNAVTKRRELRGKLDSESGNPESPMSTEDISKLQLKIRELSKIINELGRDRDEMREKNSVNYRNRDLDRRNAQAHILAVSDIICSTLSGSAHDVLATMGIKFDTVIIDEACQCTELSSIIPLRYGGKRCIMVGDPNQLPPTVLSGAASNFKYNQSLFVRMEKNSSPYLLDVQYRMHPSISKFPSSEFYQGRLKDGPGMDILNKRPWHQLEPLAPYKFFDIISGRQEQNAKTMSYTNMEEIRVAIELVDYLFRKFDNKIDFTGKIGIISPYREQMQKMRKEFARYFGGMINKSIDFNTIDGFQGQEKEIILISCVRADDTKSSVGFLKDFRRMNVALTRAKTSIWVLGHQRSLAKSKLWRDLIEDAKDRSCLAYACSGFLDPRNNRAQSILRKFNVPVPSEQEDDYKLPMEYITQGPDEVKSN
Put plainly: fluorescence anisotropy. To be noted: 2 mM Mg2+; FA: 20 mM Hepes pH 7.5, 300 mM NaCl, 2 mM MgCl2, 1 mM DTT, 20 C, 10 nM RNA; recombinant protein; residues 1095-1904; protein details: C-terminal CPD-His8 removed by 3C; label: 5' fluorescein. Background: In fluorescence polarisation assays a small probe gives low polarisation when free and higher when bound to something large.

Data set [2] has as its target T2, Sen1Hel T1779P (Saccharomyces cerevisiae) (UniProt Q00416).
T2 sequence (looked up): T1 sequence (looked up) with A195T, A199R, T685P
Put plainly: fluorescence anisotropy. To be noted: 2 mM Mg2+; FA: 20 mM Hepes pH 7.5, 300 mM NaCl, 2 mM MgCl2, 1 mM DTT, 20 C, 10 nM RNA; recombinant protein; residues 1095-1904; protein details: C-terminal CPD-His8 removed by 3C; label: 5' fluorescein.

In data set [3] the target is T3, Sen1Hel R1820Q (Saccharomyces cerevisiae) (UniProt Q00416).
T3 sequence (looked up): T1 sequence (looked up) with A195T, A199R, R726Q
Briefly: fluorescence anisotropy. The settings on record: 2 mM Mg2+; FA: 20 mM Hepes pH 7.5, 300 mM NaCl, 2 mM MgCl2, 1 mM DTT, 20 C, 10 nM RNA; recombinant protein; residues 1095-1904; protein details: C-terminal CPD-His8 removed by 3C; label: 5' fluorescein.

For data set [4], the target named is T4, Sen1Hel L1549D (Saccharomyces cerevisiae) (UniProt Q00416).
T4 sequence (looked up): T1 sequence (looked up) with A195T, A199R, L455D
Put plainly: EMSA. The settings on record: EMSA: 2 nM RNA; recombinant protein; residues 1095-1904; protein details: C-terminal CPD-His8 removed by 3C; label: 5' fluorescent label. In general terms: A gel shift assay detects complexes by their altered migration in electrophoresis.

As for “UUUCUAUUUAUUUUG [ARE 15-mer AU-rich RNA]”, the binding result in data set [1] was “binds more weakly”; in data set [2] it was “binds more weakly”; in data set [3], “binds”.
For the sequence “UUCAUUUCAGACCAGCACCCACUCACUACAACUCACGACCAGGC [DL3316 44-mer RNA]”, the binding result in data set [4] is “binds more weakly”.
